According to PubChem BioAssay AID256 (DTP/NCI, 2004):
The list shows only some results of the screen, not a fair sample: it gathers some chemical classes. Not every dose and run of a compound is shown. T/C is the treated group as % of the vehicle group. For survival time, this PubChem deposit counts one and a half times the control or more as active, and values a quarter to a half above the control carry no call in these data; other NCI protocols may use other cut-offs. Schedule codes are those of the source, read here as Q, the interval in days (D) or hours (H), X, the number of doses.

Test system: CD2F1 mice, L1210 leukemia ip, survival T/C
Assay: NCI In Vivo Anticancer Drug Screen. Data for tumor model L1210 Leukemia (intraperitoneal) in CD2F1 (CDF1) mice
Conditions: higher T/C = longer survival
Summary of the method: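 Vehicle-treated tumor-bearing mice served as controls (C) for compound-treated mice (T). Reported figure is T divided by C.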

[1] = T/C endpoint: mean survival time, dose: 25.0 mg/kg/injection, schedule: Q01DX001 (ip), vehicle: DMSO
[2] = T/C endpoint: mean survival time, dose: 50.0 mg/kg/injection, schedule: Q01DX001 (ip), vehicle: DMSO
[3] = T/C endpoint: mean survival time, dose: 100.0 mg/kg/injection, schedule: Q01DX001 (ip), vehicle: DMSO
[4] = T/C endpoint: mean survival time, dose: 200.0 mg/kg/injection, schedule: Q01DX001 (ip), vehicle: DMSO

Question: What does the source list for `CCOP(=O)(NC(=S)Nc1ccccc1NC(=S)NP(=O)(OCC)OCC)OCC`?
Answer: T/C (T/C endpoint: mean survival time, dose: 1.56 mg/kg/injection, schedule: Q01DX009 (ip), vehicle: saline): 108 % of control; T/C (T/C endpoint: mean survival time, dose: 3.12 mg/kg/injection, schedule: Q01DX009 (ip), vehicle: saline): 103 % of control; T/C (T/C endpoint: mean survival time, dose: 6.25 mg/kg/injection, schedule: Q01DX009 (ip), vehicle: saline): 96 % of control

Question: Which T/C (T/C endpoint: median survival time, dose: 6.25 mg/kg/injection, schedule: Q01DX005 (ip), vehicle: saline with Tween-80) does the source give for `CCC(O)(C(=O)OCC1=CC[N+]2([O-])CC[C@@H](OC(=O)Nc3ccccc3)C12)c1ccc(Cl)cc1` (stereo partly drawn) here?
Answer: 104 % of control

Question: What about the T/C (T/C endpoint: median survival time, dose: 12.5 mg/kg/injection, schedule: Q01DX005 (ip), vehicle: saline with Tween-80) of the same compound?
Answer: 105 % of control

Question: And the T/C (T/C endpoint: median survival time, dose: 25.0 mg/kg/injection, schedule: Q01DX005 (ip), vehicle: saline with Tween-80)?
Answer: 120 % of control

Question: What about the T/C (T/C endpoint: median survival time, dose: 50.0 mg/kg/injection, schedule: Q01DX005 (ip), vehicle: saline with Tween-80) of the same compound?
Answer: 113 % of control

Question: What about the T/C (T/C endpoint: median survival time, dose: 100.0 mg/kg/injection, schedule: Q01DX005 (ip), vehicle: saline with Tween-80) of the same compound?
Answer: 112 % of control

Question: With `CCNP(=O)(OCCCO)N(CCCl)CCCl` (stereo not drawn) as the compound, how does the T/C [1] read?
Answer: 102 % of control

Question: What about the T/C [2] of the same compound?
Answer: 100 % of control

Question: What about the T/C [3] of the same compound?
Answer: 108 % of control

Question: And the T/C [4]?
Answer: 116 % of control

Question: And the T/C (T/C endpoint: mean survival time, dose: 266.0 mg/kg/injection, schedule: Q01DX001 (ip), vehicle: DMSO)?
Answer: 109 % of control

Question: And the T/C (T/C endpoint: mean survival time, dose: 400.0 mg/kg/injection, schedule: Q01DX001 (ip), vehicle: DMSO, evaluated on day 25)?
Answer: 114 % of control

Question: What about the T/C (T/C endpoint: mean survival time, dose: 400.0 mg/kg/injection, schedule: Q01DX001 (ip), vehicle: DMSO, evaluated on day 60) of the same compound?
Answer: 141 % of control

Question: And the T/C (T/C endpoint: mean survival time, dose: 600.0 mg/kg/injection, schedule: Q01DX001 (ip), vehicle: DMSO)?
Answer: 119 % of control

Question: What about the T/C (T/C endpoint: mean survival time, dose: 900.0 mg/kg/injection, schedule: Q01DX001 (ip), vehicle: DMSO) of the same compound?
Answer: 123 % of control

Question: How did the T/C (T/C endpoint: mean survival time, dose: 100.0 mg/kg/injection, schedule: Q01DX009 (ip), vehicle: saline sonified) turn out when `N=C(N[N+](=O)[O-])N(CCN1CCN=C1N[N+](=O)[O-])N=O` was run?
Answer: 96 % of control

Question: What about the T/C (T/C endpoint: mean survival time, dose: 200.0 mg/kg/injection, schedule: Q01DX009 (ip), vehicle: saline sonified) of the same compound?
Answer: 94 % of control

Question: And the T/C (T/C endpoint: mean survival time, dose: 400.0 mg/kg/injection, schedule: Q01DX009 (ip), vehicle: saline sonified)?
Answer: 96 % of control

Question: With `O=P1(N(CCCl)CCCl)NC(CO)CCO1` (stereo not drawn) as the compound, how does the T/C (T/C endpoint: mean survival time, dose: 12.5 mg/kg/injection, schedule: Q01DX001 (ip), vehicle: DMSO) read?
Answer: 101 % of control

Question: And the T/C [1]?
Answer: 107 % of control

Question: What about the T/C [2] of the same compound?
Answer: 101 % of control

Question: What about the T/C [3] of the same compound?
Answer: 102 % of control

Question: And the T/C [4]?
Answer: 101 % of control

Question: And the T/C (T/C endpoint: mean survival time, dose: 400.0 mg/kg/injection, schedule: Q01DX001 (ip), vehicle: DMSO)?
Answer: 102 % of control

Question: What about the T/C (T/C endpoint: mean survival time, dose: 800.0 mg/kg/injection, schedule: Q01DX001 (ip), vehicle: DMSO) of the same compound?
Answer: 111 % of control

Question: What does the source list for `O=CCC1CNP(=O)(N(CCCl)CCCl)O1` (stereo not drawn)?
Answer: T/C (T/C endpoint: mean survival time, dose: 15.62 mg/kg/injection, schedule: Q01DX001 (ip), vehicle: DMSO): 97 % of control; T/C (T/C endpoint: mean survival time, dose: 31.25 mg/kg/injection, schedule: Q01DX001 (ip), vehicle: DMSO): 101 % of control; T/C (T/C endpoint: mean survival time, dose: 62.5 mg/kg/injection, schedule: Q01DX001 (ip), vehicle: DMSO): 97 % of control; T/C (T/C endpoint: mean survival time, dose: 125.0 mg/kg/injection, schedule: Q01DX001 (ip), vehicle: DMSO): 90 % of control; T/C (T/C endpoint: mean survival time, dose: 250.0 mg/kg/injection, schedule: Q01DX001 (ip), vehicle: DMSO): 87 % of control; T/C (T/C endpoint: mean survival time, dose: 500.0 mg/kg/injection, schedule: Q01DX001 (ip), vehicle: DMSO): 101 % of control
